Compound in this assay: [O-][N+](C(C1=C(C(O)=C2)NC(C(C=C3)=CC=C3Cl)C4C1C=CC4)=C2Cl)=O
Put plainly: melting temperature shift (compound 7 minus DMSO); higher = compound stabilises the protein. The conditions noted are these: 10 µM. The protocol:
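Thermal proteome profiling (TMT mass spectrometry) in intact DAOY medulloblastoma cells or DAOY lysates treated with 10 µM compound 7 or DMSO, heated at 10 temperatures from 40.5 to 73.8 °C for 3 min. Melting curves were fitted with the Bioconductor TPP package, and the melting point difference between compound and vehicle is reported per protein (single curve per condition).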

The chains behind the UniProt entries cited, without tags or fusion partners. Where a name states a change or a piece, a line headed by the entry shows the natural chain unless it says otherwise.
UniProt P53674: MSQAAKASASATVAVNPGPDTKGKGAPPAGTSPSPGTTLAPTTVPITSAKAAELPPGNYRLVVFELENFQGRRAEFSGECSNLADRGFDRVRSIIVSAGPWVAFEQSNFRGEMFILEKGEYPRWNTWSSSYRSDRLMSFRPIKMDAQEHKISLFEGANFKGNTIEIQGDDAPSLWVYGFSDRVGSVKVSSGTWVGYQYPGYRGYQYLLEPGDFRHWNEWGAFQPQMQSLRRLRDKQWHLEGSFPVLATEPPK
UniProt Q99470: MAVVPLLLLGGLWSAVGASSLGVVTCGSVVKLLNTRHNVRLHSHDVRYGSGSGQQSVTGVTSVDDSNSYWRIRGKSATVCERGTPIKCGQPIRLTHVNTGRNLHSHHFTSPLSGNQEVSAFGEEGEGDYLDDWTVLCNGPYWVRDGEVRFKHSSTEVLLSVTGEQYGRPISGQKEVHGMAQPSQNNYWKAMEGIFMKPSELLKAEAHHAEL
UniProt Q8WWC4: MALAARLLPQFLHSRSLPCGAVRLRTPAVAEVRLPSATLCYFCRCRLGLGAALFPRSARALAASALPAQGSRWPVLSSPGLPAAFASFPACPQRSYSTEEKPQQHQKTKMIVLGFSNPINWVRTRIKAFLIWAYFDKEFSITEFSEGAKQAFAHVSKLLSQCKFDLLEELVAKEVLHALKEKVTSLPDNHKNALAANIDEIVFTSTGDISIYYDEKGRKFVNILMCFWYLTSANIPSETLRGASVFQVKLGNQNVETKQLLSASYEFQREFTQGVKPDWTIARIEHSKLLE
UniProt Q3YEC7: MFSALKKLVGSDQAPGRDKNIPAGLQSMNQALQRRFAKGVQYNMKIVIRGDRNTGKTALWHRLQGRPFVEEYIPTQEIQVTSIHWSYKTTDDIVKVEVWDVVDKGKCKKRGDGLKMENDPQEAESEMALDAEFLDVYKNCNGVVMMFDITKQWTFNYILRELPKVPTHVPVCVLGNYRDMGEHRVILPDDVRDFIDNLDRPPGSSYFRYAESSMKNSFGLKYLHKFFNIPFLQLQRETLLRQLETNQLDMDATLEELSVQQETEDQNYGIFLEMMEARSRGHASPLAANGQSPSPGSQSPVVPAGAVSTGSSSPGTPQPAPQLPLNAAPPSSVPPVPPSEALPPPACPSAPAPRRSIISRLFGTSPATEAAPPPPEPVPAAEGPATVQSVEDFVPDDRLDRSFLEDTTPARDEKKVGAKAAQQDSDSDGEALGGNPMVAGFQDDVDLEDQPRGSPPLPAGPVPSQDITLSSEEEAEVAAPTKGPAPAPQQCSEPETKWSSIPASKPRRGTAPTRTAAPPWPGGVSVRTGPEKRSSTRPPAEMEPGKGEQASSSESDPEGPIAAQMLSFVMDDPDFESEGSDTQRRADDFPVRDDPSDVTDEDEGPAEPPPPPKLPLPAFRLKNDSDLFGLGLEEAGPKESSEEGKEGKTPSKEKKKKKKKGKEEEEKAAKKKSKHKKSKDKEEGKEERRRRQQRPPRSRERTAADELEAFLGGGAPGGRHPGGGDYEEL
UniProt P35080, whole entry: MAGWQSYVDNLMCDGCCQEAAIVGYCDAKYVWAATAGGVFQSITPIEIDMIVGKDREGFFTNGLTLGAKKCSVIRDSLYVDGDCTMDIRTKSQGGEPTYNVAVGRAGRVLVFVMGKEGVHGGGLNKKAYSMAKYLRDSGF
UniProt Q12841: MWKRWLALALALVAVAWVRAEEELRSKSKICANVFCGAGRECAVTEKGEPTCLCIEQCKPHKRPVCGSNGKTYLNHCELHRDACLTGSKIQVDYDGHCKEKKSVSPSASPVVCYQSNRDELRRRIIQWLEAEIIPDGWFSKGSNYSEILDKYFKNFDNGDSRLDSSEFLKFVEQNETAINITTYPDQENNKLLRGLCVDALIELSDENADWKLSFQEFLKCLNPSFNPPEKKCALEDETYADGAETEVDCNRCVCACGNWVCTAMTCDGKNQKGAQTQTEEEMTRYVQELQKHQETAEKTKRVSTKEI
UniProt Q9NP66: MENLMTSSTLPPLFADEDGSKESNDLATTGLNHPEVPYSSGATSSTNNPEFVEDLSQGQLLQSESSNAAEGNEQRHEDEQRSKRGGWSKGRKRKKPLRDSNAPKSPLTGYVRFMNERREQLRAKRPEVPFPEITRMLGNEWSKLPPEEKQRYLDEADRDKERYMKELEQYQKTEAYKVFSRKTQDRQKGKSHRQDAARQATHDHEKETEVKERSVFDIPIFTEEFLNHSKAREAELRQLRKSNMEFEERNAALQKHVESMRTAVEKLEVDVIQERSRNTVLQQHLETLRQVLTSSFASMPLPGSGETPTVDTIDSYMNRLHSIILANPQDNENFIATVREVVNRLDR
UniProt Q9P013: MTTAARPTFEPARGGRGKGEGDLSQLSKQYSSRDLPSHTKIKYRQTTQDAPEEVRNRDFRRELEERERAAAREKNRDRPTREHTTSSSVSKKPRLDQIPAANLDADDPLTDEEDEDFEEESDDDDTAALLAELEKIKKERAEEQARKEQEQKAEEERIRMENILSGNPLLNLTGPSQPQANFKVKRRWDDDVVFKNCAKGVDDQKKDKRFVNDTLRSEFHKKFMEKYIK
UniProt Q96IX5: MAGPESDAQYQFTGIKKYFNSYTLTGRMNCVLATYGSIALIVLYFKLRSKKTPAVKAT
UniProt Q9UI14, whole entry: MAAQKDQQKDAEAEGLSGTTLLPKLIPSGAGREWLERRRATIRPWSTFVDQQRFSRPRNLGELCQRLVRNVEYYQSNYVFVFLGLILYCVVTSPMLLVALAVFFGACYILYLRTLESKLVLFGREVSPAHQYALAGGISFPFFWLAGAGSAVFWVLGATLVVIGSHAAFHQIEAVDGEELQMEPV
UniProt Q96GX2: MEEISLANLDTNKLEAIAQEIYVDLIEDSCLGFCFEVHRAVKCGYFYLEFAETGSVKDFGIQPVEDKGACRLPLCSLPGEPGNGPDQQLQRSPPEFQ
UniProt Q96S99: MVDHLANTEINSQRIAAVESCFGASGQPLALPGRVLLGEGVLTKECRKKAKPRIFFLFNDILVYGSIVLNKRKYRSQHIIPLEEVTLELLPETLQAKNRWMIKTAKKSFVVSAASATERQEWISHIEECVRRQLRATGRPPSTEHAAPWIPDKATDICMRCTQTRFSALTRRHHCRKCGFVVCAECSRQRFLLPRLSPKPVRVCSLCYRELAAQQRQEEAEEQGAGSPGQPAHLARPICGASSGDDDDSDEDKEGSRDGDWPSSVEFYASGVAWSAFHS
UniProt Q9H1K4: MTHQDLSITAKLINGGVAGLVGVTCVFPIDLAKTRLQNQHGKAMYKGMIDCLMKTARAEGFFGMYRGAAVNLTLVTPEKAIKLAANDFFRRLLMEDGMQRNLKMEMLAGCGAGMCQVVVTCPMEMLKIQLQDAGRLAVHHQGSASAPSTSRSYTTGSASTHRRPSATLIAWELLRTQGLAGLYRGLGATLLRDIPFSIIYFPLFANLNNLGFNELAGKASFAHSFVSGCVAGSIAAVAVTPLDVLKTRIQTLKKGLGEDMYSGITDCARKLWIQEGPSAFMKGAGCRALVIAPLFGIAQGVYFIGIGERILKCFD
UniProt P24043: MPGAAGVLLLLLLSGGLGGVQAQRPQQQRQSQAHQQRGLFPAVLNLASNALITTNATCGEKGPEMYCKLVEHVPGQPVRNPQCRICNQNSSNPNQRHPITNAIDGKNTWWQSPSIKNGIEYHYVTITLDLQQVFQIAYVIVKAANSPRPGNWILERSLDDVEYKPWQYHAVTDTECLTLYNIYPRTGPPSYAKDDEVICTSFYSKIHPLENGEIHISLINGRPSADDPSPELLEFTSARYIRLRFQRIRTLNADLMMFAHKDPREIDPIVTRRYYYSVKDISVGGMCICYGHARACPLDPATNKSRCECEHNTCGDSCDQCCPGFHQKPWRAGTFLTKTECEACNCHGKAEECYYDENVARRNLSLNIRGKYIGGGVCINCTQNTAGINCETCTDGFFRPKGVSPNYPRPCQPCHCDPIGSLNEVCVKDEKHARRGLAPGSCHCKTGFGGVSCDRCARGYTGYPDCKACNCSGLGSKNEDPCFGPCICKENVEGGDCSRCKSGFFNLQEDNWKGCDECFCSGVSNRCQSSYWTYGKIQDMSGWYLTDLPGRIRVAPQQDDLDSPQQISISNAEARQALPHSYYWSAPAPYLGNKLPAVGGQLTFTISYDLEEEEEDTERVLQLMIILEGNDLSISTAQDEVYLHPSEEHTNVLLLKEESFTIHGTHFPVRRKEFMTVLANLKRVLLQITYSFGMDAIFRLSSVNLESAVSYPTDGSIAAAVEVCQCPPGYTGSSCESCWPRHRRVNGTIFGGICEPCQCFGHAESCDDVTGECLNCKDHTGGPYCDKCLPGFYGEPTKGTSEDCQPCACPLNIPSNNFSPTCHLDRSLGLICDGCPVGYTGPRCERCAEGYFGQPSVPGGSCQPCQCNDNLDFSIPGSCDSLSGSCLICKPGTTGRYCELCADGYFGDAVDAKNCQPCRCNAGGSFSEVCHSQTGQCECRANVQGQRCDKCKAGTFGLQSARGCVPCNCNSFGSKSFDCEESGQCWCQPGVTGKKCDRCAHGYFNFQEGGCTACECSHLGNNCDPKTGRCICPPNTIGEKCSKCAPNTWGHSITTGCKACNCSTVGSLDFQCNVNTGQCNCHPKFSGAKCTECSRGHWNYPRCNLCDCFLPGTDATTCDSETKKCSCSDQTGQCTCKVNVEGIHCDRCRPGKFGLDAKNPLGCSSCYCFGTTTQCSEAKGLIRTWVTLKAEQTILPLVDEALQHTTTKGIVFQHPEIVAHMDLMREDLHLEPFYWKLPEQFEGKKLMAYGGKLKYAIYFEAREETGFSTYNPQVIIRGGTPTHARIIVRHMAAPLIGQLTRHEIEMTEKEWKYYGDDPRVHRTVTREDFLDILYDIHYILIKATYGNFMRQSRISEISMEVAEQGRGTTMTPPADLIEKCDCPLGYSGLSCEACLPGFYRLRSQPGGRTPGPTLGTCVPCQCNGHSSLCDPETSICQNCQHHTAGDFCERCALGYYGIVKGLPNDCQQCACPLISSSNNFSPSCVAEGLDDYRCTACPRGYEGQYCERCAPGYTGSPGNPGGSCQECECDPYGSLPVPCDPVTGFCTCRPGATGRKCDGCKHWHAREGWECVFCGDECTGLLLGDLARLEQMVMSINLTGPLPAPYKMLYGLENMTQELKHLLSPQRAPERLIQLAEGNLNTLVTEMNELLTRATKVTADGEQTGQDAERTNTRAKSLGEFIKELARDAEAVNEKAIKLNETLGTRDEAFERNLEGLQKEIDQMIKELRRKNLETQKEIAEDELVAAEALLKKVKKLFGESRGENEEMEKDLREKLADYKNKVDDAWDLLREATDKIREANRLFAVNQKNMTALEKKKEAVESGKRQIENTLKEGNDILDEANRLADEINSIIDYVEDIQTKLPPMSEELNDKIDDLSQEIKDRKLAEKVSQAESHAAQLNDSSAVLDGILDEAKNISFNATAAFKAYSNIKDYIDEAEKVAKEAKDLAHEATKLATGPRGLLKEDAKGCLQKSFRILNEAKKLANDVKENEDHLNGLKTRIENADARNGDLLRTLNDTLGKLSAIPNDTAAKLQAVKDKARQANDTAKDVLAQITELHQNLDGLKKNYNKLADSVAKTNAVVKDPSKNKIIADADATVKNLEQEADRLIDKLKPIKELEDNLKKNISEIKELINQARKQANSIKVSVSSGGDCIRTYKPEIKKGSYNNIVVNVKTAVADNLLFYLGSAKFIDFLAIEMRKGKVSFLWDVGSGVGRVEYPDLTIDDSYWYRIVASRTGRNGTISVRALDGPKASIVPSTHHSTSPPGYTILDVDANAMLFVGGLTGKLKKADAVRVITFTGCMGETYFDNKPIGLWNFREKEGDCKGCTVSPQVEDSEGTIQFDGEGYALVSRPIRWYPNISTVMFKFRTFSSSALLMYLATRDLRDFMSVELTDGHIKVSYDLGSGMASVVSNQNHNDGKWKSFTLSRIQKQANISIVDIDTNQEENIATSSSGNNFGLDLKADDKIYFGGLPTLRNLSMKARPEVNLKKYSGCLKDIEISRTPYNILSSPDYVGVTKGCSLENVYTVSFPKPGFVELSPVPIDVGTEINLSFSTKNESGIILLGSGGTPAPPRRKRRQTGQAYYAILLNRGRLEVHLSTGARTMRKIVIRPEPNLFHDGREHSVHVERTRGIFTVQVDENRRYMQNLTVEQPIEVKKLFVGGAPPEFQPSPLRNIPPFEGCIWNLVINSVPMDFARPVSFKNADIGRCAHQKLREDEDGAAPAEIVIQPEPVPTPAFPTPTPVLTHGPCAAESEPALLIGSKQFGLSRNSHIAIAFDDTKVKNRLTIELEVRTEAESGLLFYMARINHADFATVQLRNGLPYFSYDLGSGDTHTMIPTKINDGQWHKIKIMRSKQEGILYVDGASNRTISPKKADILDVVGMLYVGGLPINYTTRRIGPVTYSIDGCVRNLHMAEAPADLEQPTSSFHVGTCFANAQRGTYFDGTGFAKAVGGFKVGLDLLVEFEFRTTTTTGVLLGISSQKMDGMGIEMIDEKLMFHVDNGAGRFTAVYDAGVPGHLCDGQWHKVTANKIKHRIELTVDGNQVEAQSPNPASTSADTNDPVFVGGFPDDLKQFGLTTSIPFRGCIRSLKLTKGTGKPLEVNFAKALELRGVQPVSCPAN

The mark [1] stands for this setting: system: DAOY cell lysate, treatment time: 20 min, 4 °C.
[2] abbreviates: system: intact DAOY cells, treatment time: 90 min, 37 °C.

Many values rest on one well or one pass, so single values are uncertain.

With PEX14 (UniProt O75381), the melting temperature shift under setting [1] was found to be 2.63 °C and the melting temperature shift under setting [2] was 0.0352 °C.

With UniProt Q8NHW5, the melting temperature shift under setting [2] worked out at 1.28 °C. Consider UniProt Q13506, for which the melting temperature shift under setting [1] amounted to 0.273 °C. Consider UniProt P53674, for which the melting temperature shift under setting [2] was found to be 0.91 °C. For the target SDF2 (UniProt Q99470), the melting temperature shift amounted to 0.114 °C under setting [1] and 0.576 °C under setting [2]. As to UniProt Q9Y3D2, the melting temperature shift under setting [2] was -1.89 °C.

In the case of GORAB (UniProt Q5T7V8), the melting temperature shift under setting [1] came to 2.73 °C.

For ARAF (UniProt P10398), the melting temperature shift under setting [1] is -2.2 °C. As to ADO (UniProt Q96SZ5), the melting temperature shift reads like this: under setting [1], 0.214 °C; under setting [2], 0.915 °C. In the case of C2ORF47 (UniProt Q8WWC4), the melting temperature shift is, setting by setting: under setting [1], 1.51 °C; under setting [2], -0.9 °C. As for UniProt O00507, under setting [2], the melting temperature shift was -0.747 °C.

As for UniProt Q5TEC6, the melting temperature shift under setting [2] is -0.0663 °C.

Turning to RABL6 (UniProt Q3YEC7), the melting temperature shift is, setting by setting: under setting [1], -1.25 °C; under setting [2], -0.0473 °C.

ATP6V1C1 (UniProt P21283): the melting temperature shift runs as follows: under setting [1], -0.43 °C; under setting [2], 0.939 °C. For MAP4K3 (UniProt Q8IVH8), under setting [1], the melting temperature shift is -1.27 °C. In the case of PUM1 (UniProt Q14671), the melting temperature shift is, setting by setting: under setting [1], 0.624 °C; under setting [2], -0.0295 °C. As to LAMTOR1 (UniProt Q6IAA8), the melting temperature shift worked out at 1.96 °C under setting [1] and 0.583 °C under setting [2]. Turning to COL5A1 (UniProt P20908), the melting temperature shift reads like this: under setting [1], 1.15 °C; under setting [2], 0.171 °C. With UniProt Q7Z3J3, the melting temperature shift under setting [2] is 0.0249 °C. For UniProt Q7Z2Y5, the melting temperature shift under setting [1] was determined as 2.8 °C and the melting temperature shift under setting [2] worked out at 0.991 °C. The corresponding values for PLS3 (UniProt P13797) are -0.852 °C and -0.0954 °C.

MRPL20 (UniProt Q9BYC9): the melting temperature shift under setting [1] came out at 0.837 °C and the melting temperature shift under setting [2] was -1.17 °C. For the target TAOK1 (UniProt Q7L7X3), the melting temperature shift runs as follows: under setting [1], 0.0231 °C; under setting [2], -0.3 °C. For the target RTN4RL2 (UniProt Q86UN3), the melting temperature shift under setting [2] is -1.48 °C.

On to RCL1 (UniProt Q9Y2P8), for which the melting temperature shift under setting [1] was 0.572 °C and the melting temperature shift under setting [2] is -0.157 °C. Turning to INPP5F (UniProt Q9Y2H2), the melting temperature shift under setting [1] is -0.846 °C.

In the case of UniProt P35080, the melting temperature shift was -0.866 °C under setting [1] and 0.0668 °C under setting [2]. For the target UniProt Q12841, the melting temperature shift under setting [1] was 0.883 °C. Turning to PSMD8 (UniProt P48556), the melting temperature shift runs as follows: under setting [1], -0.947 °C; under setting [2], -1.37 °C.

On to ATN1 (UniProt P54259), for which the melting temperature shift under setting [1] was -1.44 °C. In the case of LGMN (UniProt Q99538), the melting temperature shift is, setting by setting: under setting [1], 0.544 °C; under setting [2], 0.621 °C. Take HMG20A (UniProt Q9NP66): the melting temperature shift under setting [1] turned out to be 0.993 °C. For the target UniProt Q12999, the melting temperature shift under setting [1] was -0.802 °C. Regarding MECR (UniProt Q9BV79), the melting temperature shift under setting [2] came to 1.98 °C. As for PTBP3 (UniProt O95758), the melting temperature shift runs as follows: under setting [1], -1.12 °C; under setting [2], -0.117 °C. The corresponding values for USP22 (UniProt Q9UPT9) are -0.0365 °C and 0.157 °C. With WDR33 (UniProt Q9C0J8), under setting [1], the melting temperature shift is -0.966 °C.

Turning to SAP130 (UniProt Q9H0E3), the melting temperature shift is -0.373 °C under setting [1] and -1.34 °C under setting [2]. With GLG1 (UniProt Q92896), the melting temperature shift under setting [1] stood at 2.06 °C and the melting temperature shift under setting [2] is 2.7 °C. The like results for NDUFB7 (UniProt P17568) were, in that order, 2.72 °C and -0.743 °C.

For GMPPB (UniProt Q9Y5P6), the melting temperature shift under setting [1] was -1.04 °C. With GLMN (UniProt Q92990), the melting temperature shift is -1.38 °C under setting [1] and 0.0287 °C under setting [2]. In the case of HADHA (UniProt P40939), the melting temperature shift by setting is: under setting [1], 1.26 °C; under setting [2], 0.966 °C. The corresponding values for DNAJB12 (UniProt Q9NXW2) are 1.99 °C and -1.11 °C. The corresponding values for UBXN1 (UniProt Q04323) are 0.552 °C and -1.05 °C. Regarding DHX30 (UniProt Q7L2E3), the melting temperature shift under setting [1] was -0.426 °C and the melting temperature shift under setting [2] is 0.48 °C.

Take UniProt Q5T200: the melting temperature shift reads like this: under setting [1], 0.76 °C; under setting [2], -0.0122 °C. For the target ABHD6 (UniProt Q9BV23), the melting temperature shift under setting [2] was -0.468 °C. In the case of CWC15 (UniProt Q9P013), the melting temperature shift under setting [1] is -4.86 °C. As for UniProt Q9BX66, under setting [2], the melting temperature shift is -0.751 °C. For the target USMG5 (UniProt Q96IX5), the melting temperature shift under setting [1] came out at 3.16 °C. On to NDUFS2 (UniProt O75306), for which the melting temperature shift is, setting by setting: under setting [1], 0.689 °C; under setting [2], 0.223 °C. As to LBR (UniProt Q14739), the melting temperature shift runs as follows: under setting [1], 0.808 °C; under setting [2], -3.02 °C. Consider RABAC1 (UniProt Q9UI14), for which the melting temperature shift under setting [1] is -2.79 °C. As for UniProt Q15051, the melting temperature shift under setting [1] was 0.0941 °C. UniProt Q96GX2: the melting temperature shift under setting [1] is -0.677 °C and the melting temperature shift under setting [2] amounted to 1.29 °C. The like results for UBL4A (UniProt P11441) were, in that order, 0.475 °C and -0.706 °C. PITRM1 (UniProt Q5JRX3): the melting temperature shift was -0.027 °C under setting [1] and 2.91 °C under setting [2].

On to ATAD1 (UniProt Q8NBU5), for which the melting temperature shift by setting is: under setting [1], -0.254 °C; under setting [2], 0.275 °C. The corresponding values for POU2F1 (UniProt P14859) are -0.0648 °C and -1.12 °C. Regarding UniProt Q53EQ6, the melting temperature shift under setting [2] is -0.553 °C. With DDX21 (UniProt Q9NR30), the melting temperature shift is, setting by setting: under setting [1], 0.842 °C; under setting [2], -0.321 °C.

As to ATP6V0A1 (UniProt Q93050), the melting temperature shift by setting is: under setting [1], 1.32 °C; under setting [2], 1.65 °C. On to PLEKHF1 (UniProt Q96S99), for which, under setting [2], the melting temperature shift was -1.15 °C. Turning to HIP1 (UniProt O00291), the melting temperature shift under setting [1] was -0.275 °C and the melting temperature shift under setting [2] was -0.719 °C. Take UniProt P80303: under setting [1], the melting temperature shift turned out to be 1.16 °C. For the target UniProt Q96DC8, the melting temperature shift under setting [2] was 1.33 °C. With DNAAF2 (UniProt Q9NVR5), the melting temperature shift by setting is: under setting [1], -1.06 °C; under setting [2], 0.254 °C. UniProt Q9H1K4: under setting [2], the melting temperature shift was -0.824 °C. Still for that read-out and setting: the same measure for UniProt P24043: -3.75 °C. With CAPRIN1 (UniProt Q14444), the melting temperature shift reads like this: under setting [1], -2.63 °C; under setting [2], 1.44 °C. Turning to UniProt P80404, the melting temperature shift under setting [1] is -0.178 °C.

Values taken from the supplement of paper PMC10060354, “Discovery of a small molecule ligand of FRS2 that inhibits invasion and tumor growth” (Cellular Oncology, 2022).
